Earlier results, collected in patent US20030087789A1, “Emulsion containing a plant extract, method for producing said emulsion and for obtaining a plant extract” (priority 2000, published 2003).
At least one compound was matched to its structure with a doubt left.

Tested on: human immune deficiency virus (HIV1)
Details: animal tests

SMILES: C=C(C)[C@@H]1CC[C@]2(C(=O)O)CC[C@]3(C)[C@H](CC[C@@H]4[C@@]5(C)CC[C@H](O)C(C)(C)[C@@H]5CC[C@]43C)[C@@H]12 [betulinic acid]
- replication of retroviruses: inhibited the replication of retroviruses
